Reference: PMC4160570, “Effects of proarrhythmic drugs on relaxation time and beating pattern in rat engineered heart tissue” (Basic Research in Cardiology, 2014)

System: rat engineered heart tissue (EHT)
Test: Video-optical analysis of contractile parameters of spontaneously beating rat EHTs (50 nM epinephrine)

T2-effective concentrations: 100 fold FTPC
SMILES: CC(C)(C)c1ccc(C(=O)CCCN2CCC(OC(c3ccccc3)c3ccccc3)CC2)cc1 [Ebastine]
